PubChem BioAssay AID720505, Drosophila RNAi Screening Center, 2013
The deposit covers about 20,000 reagents; this is an unselected part of those with a known target gene and a result. Of all reagents, about 2,100 (10%) were called active. 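Raw plate signals without normalisation; calls rest on control-based scores that were not deposited; replicate 2 separates called from uncalled poorly.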 Unmarked entries are inactive. The numbers tell different reagents against one gene apart. A plus sign joins genes that one reagent is predicted to hit. Not given: the amount of reagent, the time to read-out.

Purpose: 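Knock-downs that reduce calcium influx once internal stores are emptied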 (primary screen)
Cells: Drosophila S2R+ cells
Reagents: long dsRNA against Drosophila genes
Conditions: thapsigargin (2 µM) in calcium-free buffer to empty internal stores, then 2 mM calcium added back
Detection: 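Stores emptied by 2 µM thapsigargin without calcium, then 2 mM calcium re-added; fluo-4 fluorescence followed by FLIPR in 384-well plates, per-well averaged endpoint, raw; two screen passes, some wells retested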
Scale: calcium signal and retest calcium signal: higher = more calcium entry after store depletion
Hit rule: 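About 1500 genes called as lowering calcium entry, by varying amounts, judged against per-plate control wells with STIM1 as positive and Rho1 as negative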
Meaning of the calls: active = called as lowering calcium entry; inactive = not called

target gene	reagent no.	calcium signal, replicate 1	calcium signal, replicate 2	retest calcium signal, replicate 1	retest calcium signal, replicate 2
wcy	1	116	129		
CG31326	1	89.2	104		
CG3919	1	125	79.6		
Dgkepsilon	1	152	161		
MED25	1	143	211		
MED25	2	102	91.4		
Lsm10	1	146	152		
CG3942	1	131	101		
Zip42C.1	1	142	162		
Moca-cyp	1	134	116		
Lipt1 + CG42837	1	61.5 (active)	148		
FoxK	1	99.7	75.2		
Jhedup	1	112	122		
gnu	1	99.5	140		
CG30485	1	104	200		
CG15765	1	113	93.9		
CG15765	2	101	160		
GNBP1	1	80.2	109		
GNBP1	2	99.7	89.8		
CNT1	1	81	169		
tos	1	78.9	116		
CG15641	1	95	128		
lap	1	103	155		
CG7985	1	192	335		
CG45002	1	93.5	148		
sta	1	49.8 (active)	98.8		
Gpdh2	1	95.5	229		
CG33493	1	69	82.1		
SKIP	1	176	152		
SKIP	2	205	149		
SKIP	3	204	178		
SKIP	4	65.8 (active)	119	166	134
SKIP	5	183	150	8151	174
CG6356	1	202	149		
CG3176 + CR18166 + CG32817	1	115	85.9		
Dyb	1	63	178	214	115
Dyb	2	92.6	106		
CG40948 (retired record)	1	97	9818		
CG18367	1	57 (active)	63.4	176	183
CG13050	1	73.7 (active)	125		
CG5850	1	105	97.1		
nmdyn-D7	1	144	93		
CG6179	1	92.5	137		
stl	1	70.7 (active)	159		
CG9757	1	121	244		
CG9757	2	151	104		
CG14200	1	73.5 (active)	114		
CG14200	2	101	85.9		
rdx	1	85	178		
rdx	2	80.9	157		
rdx	3	119	166		
CG33012	1	171	172		
CG33012	2	158	212		
Tengl4	1	47.6 (active)	180		
ND-B14.7	1	44	148		
wa-cup	1	122	101		
TotM	1	160	95.9		
Smu1	1	191	141		
lncRNA:CR31526	1	157	131		
cnn	1	74.3	132		
cnn	2	170	163		
CG6659	1	200	174		
CG12708	1	93.4	155		
CG14207	1	94	112		
CG14207	2	191	91.9		
CG6051	1	142	158		
yellow-d2	1	78.7	98.8		
CG5727	1	125	101		
Marf	1	95.8	113		
CG17658	1	141	195		
sol	1	90.9	116		
Tssk	1	162	147		
Rh3	1	148	187		
Cpr64Ab	1	106	94.3		
Gr89a	1	114	140		
esn	1	63 (active)	57.2		
esn	2	129	154		
esn	3	116	134		
BomS1	1	67	151		
CG34310	1	75.8	156		
Cpr78Cb	1	72.9	163		
ATPsynO	1	91.1	83.3		
Pgam5	1	96.5	136		
Elk	1	150	156		
PHDP	1	123	202		
del	1	143	89.2		
CG8860	1	117	107		
CG31431	1	235	193		
bigmax	1	64.7 (active)	110		
CG13386	1	140	138		
CG7695	1	159	118		
CG12567	1	69.2 (active)	134		
Ir60b	1	114	138		
CG8176	1	101	109		
cpo	1	187	110		
cpo	2	199	130		
cpo	3	196	143		
cpo	4	183	163		
Corin	1	66	122	144	125
Pgm1	1	130	90.5		
Trxr1	1	118	77.1		
Trxr1	2	80.3	198		
CG9759	1	95	107		
CG5934	1	157	144		
POSH	1	192	178		
Nthl1	1	168	118		

Quoted from the listing, 7 entries:
target gene	reagent no.	calcium signal, replicate 1	calcium signal, replicate 2	retest calcium signal, replicate 1	retest calcium signal, replicate 2
CG14207	1	94	112		
CG14207	2	191	91.9		
CG6051	1	142	158		
yellow-d2	1	78.7	98.8		
CG5727	1	125	101		
Marf	1	95.8	113		
CG17658	1	141	195		
